Data on seven substances can be found in publication doi:10.1101/2021.01.08.425619.

The chains behind the UniProt entries cited, without tags or fusion partners. Where a name states a change or a piece, a line headed by the entry shows the natural chain unless it says otherwise.
UniProt P63168: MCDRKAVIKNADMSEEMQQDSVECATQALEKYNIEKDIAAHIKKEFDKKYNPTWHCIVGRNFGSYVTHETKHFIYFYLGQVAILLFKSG
UniProt Q24117: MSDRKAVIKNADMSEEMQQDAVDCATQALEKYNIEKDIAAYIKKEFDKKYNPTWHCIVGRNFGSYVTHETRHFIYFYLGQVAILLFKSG
UniProt Q32KD2: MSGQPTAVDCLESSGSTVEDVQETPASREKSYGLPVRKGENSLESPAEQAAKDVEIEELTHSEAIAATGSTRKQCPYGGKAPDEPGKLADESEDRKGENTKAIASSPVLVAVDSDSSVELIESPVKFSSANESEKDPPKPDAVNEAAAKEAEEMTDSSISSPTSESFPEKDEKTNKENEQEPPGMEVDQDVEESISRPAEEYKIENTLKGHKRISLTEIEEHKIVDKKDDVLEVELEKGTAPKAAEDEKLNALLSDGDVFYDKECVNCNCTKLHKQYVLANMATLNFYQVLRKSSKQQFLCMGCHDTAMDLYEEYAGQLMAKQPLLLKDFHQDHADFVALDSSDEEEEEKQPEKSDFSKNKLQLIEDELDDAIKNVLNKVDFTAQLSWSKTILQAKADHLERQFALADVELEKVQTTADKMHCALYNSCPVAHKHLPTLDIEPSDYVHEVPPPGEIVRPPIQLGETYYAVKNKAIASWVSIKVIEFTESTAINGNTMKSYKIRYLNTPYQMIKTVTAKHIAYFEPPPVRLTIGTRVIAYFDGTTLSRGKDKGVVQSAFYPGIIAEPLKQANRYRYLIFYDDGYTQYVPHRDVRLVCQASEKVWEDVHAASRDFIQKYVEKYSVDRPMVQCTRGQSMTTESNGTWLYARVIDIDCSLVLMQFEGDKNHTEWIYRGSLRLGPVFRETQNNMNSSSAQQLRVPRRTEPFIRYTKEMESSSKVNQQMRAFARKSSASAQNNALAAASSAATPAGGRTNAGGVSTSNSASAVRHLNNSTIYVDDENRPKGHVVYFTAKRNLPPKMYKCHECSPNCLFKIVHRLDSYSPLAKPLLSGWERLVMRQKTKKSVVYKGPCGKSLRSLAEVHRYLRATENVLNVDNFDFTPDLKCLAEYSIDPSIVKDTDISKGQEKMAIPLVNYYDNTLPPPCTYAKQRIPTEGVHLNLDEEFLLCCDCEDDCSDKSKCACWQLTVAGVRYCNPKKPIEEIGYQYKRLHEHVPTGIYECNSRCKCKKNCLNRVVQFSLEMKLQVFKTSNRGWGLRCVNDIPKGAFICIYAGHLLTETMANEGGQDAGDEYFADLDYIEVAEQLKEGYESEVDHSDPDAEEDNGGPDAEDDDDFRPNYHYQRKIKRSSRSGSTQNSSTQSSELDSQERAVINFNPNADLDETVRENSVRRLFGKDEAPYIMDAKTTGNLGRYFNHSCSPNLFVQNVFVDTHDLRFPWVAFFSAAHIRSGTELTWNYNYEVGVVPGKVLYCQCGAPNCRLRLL
UniProt A2A791: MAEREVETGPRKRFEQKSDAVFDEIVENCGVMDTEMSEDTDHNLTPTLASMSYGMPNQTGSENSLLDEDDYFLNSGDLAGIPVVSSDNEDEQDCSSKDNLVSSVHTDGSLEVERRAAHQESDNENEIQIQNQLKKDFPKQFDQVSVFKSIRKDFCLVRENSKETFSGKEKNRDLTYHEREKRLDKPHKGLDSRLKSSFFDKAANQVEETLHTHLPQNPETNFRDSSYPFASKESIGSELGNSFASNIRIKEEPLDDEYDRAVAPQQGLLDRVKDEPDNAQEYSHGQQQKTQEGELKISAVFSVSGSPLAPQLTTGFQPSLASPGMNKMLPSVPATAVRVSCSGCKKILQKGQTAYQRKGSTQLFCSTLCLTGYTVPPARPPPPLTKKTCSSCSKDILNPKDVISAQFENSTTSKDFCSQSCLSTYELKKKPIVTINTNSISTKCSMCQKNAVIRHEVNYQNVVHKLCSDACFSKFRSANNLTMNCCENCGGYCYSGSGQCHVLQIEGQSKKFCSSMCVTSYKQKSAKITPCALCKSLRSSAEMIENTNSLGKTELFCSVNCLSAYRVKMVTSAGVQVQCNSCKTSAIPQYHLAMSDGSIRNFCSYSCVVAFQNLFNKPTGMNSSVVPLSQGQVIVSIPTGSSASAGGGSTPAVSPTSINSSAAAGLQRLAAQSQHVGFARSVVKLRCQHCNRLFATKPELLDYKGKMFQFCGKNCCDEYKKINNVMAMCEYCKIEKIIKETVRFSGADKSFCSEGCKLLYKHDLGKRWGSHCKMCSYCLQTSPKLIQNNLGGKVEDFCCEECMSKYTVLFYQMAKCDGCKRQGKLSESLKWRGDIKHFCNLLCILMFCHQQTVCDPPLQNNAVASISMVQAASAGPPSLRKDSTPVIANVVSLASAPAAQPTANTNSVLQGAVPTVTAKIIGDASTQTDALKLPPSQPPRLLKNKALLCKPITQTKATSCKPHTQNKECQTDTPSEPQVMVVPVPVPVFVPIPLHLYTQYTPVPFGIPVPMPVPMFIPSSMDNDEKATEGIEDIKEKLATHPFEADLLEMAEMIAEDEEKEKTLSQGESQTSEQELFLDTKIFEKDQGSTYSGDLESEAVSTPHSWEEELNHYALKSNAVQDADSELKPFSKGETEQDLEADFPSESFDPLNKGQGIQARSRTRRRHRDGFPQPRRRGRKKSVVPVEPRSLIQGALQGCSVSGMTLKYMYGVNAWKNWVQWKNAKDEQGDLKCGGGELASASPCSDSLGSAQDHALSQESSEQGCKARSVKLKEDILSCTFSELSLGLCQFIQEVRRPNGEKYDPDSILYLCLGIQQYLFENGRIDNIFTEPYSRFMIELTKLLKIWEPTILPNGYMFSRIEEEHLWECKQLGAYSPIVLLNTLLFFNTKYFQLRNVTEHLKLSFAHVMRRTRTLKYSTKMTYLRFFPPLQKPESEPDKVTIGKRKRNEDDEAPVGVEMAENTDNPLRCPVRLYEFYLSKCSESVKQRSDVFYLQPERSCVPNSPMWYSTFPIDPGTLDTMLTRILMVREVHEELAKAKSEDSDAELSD
UniProt Q9VCU6: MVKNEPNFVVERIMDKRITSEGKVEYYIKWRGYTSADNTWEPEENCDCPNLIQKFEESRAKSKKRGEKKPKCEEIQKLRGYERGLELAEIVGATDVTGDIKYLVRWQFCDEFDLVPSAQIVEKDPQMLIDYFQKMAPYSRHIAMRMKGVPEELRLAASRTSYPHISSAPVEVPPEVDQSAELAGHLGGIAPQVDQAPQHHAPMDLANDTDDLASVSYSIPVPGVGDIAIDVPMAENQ
UniProt A0A0B4LF38: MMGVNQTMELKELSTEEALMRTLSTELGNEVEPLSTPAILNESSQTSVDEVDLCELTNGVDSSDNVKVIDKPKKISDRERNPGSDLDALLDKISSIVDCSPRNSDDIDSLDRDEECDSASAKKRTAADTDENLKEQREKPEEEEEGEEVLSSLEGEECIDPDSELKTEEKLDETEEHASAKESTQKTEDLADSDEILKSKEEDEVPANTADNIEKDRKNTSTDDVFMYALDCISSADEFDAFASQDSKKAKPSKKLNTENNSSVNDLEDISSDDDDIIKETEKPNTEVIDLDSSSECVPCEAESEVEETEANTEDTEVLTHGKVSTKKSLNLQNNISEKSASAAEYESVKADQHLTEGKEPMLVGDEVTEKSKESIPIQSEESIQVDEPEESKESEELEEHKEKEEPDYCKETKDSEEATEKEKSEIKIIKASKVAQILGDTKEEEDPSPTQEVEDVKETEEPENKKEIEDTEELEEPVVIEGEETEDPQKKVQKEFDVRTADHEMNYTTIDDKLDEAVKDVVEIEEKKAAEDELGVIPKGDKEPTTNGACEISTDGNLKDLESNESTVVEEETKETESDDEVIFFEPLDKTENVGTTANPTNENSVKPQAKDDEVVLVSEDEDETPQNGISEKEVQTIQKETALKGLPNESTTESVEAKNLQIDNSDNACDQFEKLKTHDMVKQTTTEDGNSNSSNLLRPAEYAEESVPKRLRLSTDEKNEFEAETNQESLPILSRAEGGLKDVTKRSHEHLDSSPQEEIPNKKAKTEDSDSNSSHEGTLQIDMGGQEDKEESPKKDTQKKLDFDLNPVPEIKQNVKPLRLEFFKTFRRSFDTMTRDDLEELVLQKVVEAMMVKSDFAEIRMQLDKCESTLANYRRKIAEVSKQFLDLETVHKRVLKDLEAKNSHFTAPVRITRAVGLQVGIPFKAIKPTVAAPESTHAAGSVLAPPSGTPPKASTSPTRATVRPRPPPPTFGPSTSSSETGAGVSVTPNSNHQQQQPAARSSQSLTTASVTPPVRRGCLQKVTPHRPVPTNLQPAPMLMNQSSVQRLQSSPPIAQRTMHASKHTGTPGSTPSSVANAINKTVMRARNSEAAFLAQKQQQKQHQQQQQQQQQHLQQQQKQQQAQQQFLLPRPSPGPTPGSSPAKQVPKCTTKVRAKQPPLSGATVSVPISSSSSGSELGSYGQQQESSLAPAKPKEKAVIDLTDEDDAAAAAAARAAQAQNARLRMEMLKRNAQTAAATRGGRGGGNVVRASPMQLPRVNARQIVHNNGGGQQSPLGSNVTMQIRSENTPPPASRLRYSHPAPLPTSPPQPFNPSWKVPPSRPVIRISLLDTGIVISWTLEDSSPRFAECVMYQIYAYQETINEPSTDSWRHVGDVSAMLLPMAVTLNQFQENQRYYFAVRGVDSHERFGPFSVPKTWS
UniProt Q9VV73: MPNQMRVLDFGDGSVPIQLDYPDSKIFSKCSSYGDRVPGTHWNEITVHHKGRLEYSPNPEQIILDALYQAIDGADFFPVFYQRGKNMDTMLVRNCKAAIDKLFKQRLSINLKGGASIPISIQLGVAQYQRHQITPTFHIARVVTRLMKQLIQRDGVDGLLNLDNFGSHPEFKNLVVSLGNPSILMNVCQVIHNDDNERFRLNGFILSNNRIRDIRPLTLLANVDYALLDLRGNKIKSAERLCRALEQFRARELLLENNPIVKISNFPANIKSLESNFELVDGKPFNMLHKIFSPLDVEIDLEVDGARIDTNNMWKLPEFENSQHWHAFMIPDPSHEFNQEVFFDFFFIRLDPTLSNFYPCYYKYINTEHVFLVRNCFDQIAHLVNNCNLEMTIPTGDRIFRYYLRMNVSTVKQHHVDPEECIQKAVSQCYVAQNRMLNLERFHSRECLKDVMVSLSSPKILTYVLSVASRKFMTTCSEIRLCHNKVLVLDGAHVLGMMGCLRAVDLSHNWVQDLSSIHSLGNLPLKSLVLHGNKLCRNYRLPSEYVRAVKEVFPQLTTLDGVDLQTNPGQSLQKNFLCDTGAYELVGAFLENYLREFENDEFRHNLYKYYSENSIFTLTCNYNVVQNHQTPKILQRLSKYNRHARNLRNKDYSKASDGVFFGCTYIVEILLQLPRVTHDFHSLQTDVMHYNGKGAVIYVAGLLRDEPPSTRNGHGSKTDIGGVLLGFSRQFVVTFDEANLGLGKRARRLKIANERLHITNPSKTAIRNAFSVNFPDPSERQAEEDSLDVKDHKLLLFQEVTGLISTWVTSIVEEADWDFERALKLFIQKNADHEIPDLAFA
UniProt Q5LJQ3: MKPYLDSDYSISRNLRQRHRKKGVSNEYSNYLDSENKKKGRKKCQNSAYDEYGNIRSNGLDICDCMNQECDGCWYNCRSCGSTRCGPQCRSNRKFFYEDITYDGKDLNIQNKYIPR

Common to all, as to assay: affinity purification with mass spectrometry
Assay [1] has as its target Mouse LC8/Dynll1, endogenously tagged (mouse) (UniProt P63168).
For assay [2], the target named is FLAG-GFP tagged LC8 (Drosophila) (UniProt Q24117).
The target in assay [3] is FLAG-GFP tagged Eggless (Drosophila (endogenous locus in OSCs)) (UniProt Q32KD2).

These are yes or no findings as the source states them, for the method shown. In cells and extracts the contact can be indirect. A yes stands for co-enrichment or nearness to the bait. Other partners may have been found. For some of these results: No binding means not detected with the bait.

Take Zmym4 (from UniProt A2A791 1-1549): the binding entry in assay [1] is given as “binds”. HP1c (from UniProt Q9VCU6): in assay [2], the binding result is listed as “binds”. The same measure, in the same setting: then Windei/ATF7IP (from UniProt A0A0B4LF38), with “binds”. Regarding “Nxf2, endogenous (from UniProt Q9VV73 1-841)”, the binding entry in assay [3] is given as “no binding”. Still for that read-out and setting: then “Cutup, the 8 kDa Dynein Light Chain 8 (LC8) ortholog of Drosophila, endogenous (from UniProt Q24117 1-89)”, with “binds”.

As for CG14464/ARLE-14 (from UniProt Q5LJQ3), the binding entry in assay [2] is “binds”.

For Robl (from UniProt A1ZAT3), the binding entry in assay [2] is on record as “binds”.
